The nature of this assay: qHTS Assay to Find Inhibitors of Chronic Active B-Cell Receptor Signaling. The following applies: ABC-DLBCL IkBa-CBG/CBR reporter, luminescence ratio (green luciferase fused to IkBa over red control in TMD8 lymphoma cells), 4 h. An outline of the steps:
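TMD8 ABC-DLBCL cells carrying doxycycline-inducible green luciferase fused to IkappaBalpha plus unfused red luciferase were exposed to compounds (up to 46 uM) for 4 hrs at 37C. Activity came from the overlap-corrected green/red luminescence ratio.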
In general terms: qHTS replaces the single test concentration by a dilution series.

[1] abbreviates: measured here: CBR red luminescence, cell number.
Setting [2] is: measured here: IkBa-CBG green luminescence.

The other results are listed elsewhere or left out. Further columns of the screen follow, without active or inactive calls. Most of these compounds were active or inconclusive in the main read-out, so they are no random draw. Potencies come from curve fits of mixed quality, noted in brackets.

Take `C/C(O)=C(\N=Nc1cc(C)ccc1O)C(N)=O`: under setting [1], the AC50 – broadly, the midpoint of the concentration-response curve, whichever way the signal moves – is 1.12 µM [falling, full curve, poor fit].

Regarding `COc1ccc(-c2nnc(SCC(=O)Nc3ccc(C(C)=O)cc3)nc2-c2ccc(OC)cc2)cc1`, the AC50 under setting [1] is 31.6 µM [falling, single point].

As for `O=C(Nc1ccc(F)cc1F)NC1CCN(S(=O)(=O)c2ccc(F)cc2)CC1`, the AC50 under setting [1] was 25.1 µM [falling, single point].

Turning to `COc1ccccc1/C=C/C(=O)OCC(=O)N1CCCCC1`, the AC50 under setting [1] was 9.2 µM [falling, partial curve].

With `COC(=O)C1CCN(C(=O)CN2C(=O)NC(CC(C)C)C2=O)CC1` (stereo unspecified), the AC50 under setting [1] was 29.1 µM [falling, single point].

For `CCCC(C(=O)NCC1CCCO1)N(Cc1ccco1)C(=O)CNS(=O)(=O)c1ccc(F)cc1` (stereo unspecified), the AC50 under setting [1] was 29.1 µM [rising, single point].

Turning to `O=C(Nc1cccc(F)c1)c1ccc2c(c1)OCCO2`, the concentration at half-maximal activity (AC50) under setting [1] was 10 µM [falling, partial curve].

Turning to `CN(Cc1nc2ccccc2c(=O)[nH]1)C(=O)c1cc(C2CC2)nn1-c1ccccc1`, under setting [1], the AC50 is 10.3 µM [falling, partial curve].

As to `C=CCN(c1ccccc1Cl)S(=O)(=O)c1cc(C(=O)N2CCCC2)ccc1Cl`, the AC50 under setting [1] is 12.6 µM [falling, partial curve, poor fit].

As to `COc1ccccc1OCC(=O)O/N=C(\N)c1ccccn1`, the AC50 under setting [1] is 1.58 µM [falling, full curve].

On to `COn1c(-c2ccc(Cl)cc2)nc2ccc(Cl)cc21`, for which the AC50 under setting [1] was 2 µM [rising, partial curve, poor fit].

With `O=C(O)c1nc2ccccc2nc1C(=O)O`, the AC50 under setting [1] is 3.55 µM [rising, partial curve, poor fit].

`COc1ccc(N(CC(=O)NCc2ccccc2OC)S(=O)(=O)c2ccc(C)cc2)cc1Cl`: the concentration at half-maximal activity (AC50) under setting [1] is 14.1 µM [falling, single point].

As to `O=S(=O)(c1cccc(Cl)c1Cl)N1CCCCC1`, the AC50 under setting [1] was 0.58 µM [rising, full curve, poor fit].

With `COc1ccc(CNCCC(c2ccc(OC)cc2)c2ccccc2OC)cc1` (stereo unspecified), the AC50 under setting [1] was 35.5 µM [falling, single point].

For the molecule `CCN(CC)CCn1nc2c3c(cccc3c1=O)-c1ccccc1-2`, the AC50 under setting [1] was 11.2 µM [falling, single point].

As for `CCCCN(C)CCC(=O)Nc1ccc(Cl)cc1`, the half-maximal activity concentration (AC50) under setting [1] is 10.3 µM [rising, single point].

For `CO[C@@H]1[C@@H](OC(N)=O)[C@@H](O)C(Oc2ccc3c(O)c(NC(=O)c4ccc(O)c(CC=C(C)C)c4)c(=O)oc3c2C)OC1(C)C` (stereo partly specified), under setting [1], the half-maximal activity concentration (AC50) was 29.1 µM [falling, single point].

For the molecule `Cc1ccc(NCC(=O)N/N=C/c2ccc(OC(=O)c3ccco3)cc2)cc1`, the AC50 under setting [1] is 1 µM [falling, partial curve, poor fit].

On to `O=C(CCC(=O)Nc1nnc(C2CCCCC2)s1)NCc1cccs1`, for which, under setting [1], the AC50 is 3.16 µM [rising, full curve, poor fit].

Consider `O=C(N/N=C\c1ccc(Cl)s1)c1cccs1`, for which the AC50 under setting [1] was 18.4 µM [falling, single point].

Take `CCOC(=O)CSc1ncc(-c2ccccc2)nn1`: under setting [1], the AC50 is 0.517 µM [falling, full curve, poor fit].

For the molecule `Cc1ccc2sc(N(CCCN(C)C)C(=O)CN3C(=O)c4ccccc4C3=O)nc2c1C`, the AC50 under setting [1] is 35.5 µM [falling, partial curve, poor fit].

Consider `CCN1CCN(c2ccc(S(=O)(=O)N3CCOCC3)cc2NC(=O)/C=C/c2ccc([N+](=O)[O-])cc2)CC1`, for which the AC50 under setting [1] was 29.1 µM [rising, single point] and the AC50 under setting [2] is 23.1 µM [falling, single point].

With `CCCC(=O)Nc1nc(-c2ccccc2)ns1`, under setting [1], the AC50 was 14.6 µM [falling, single point].

On to `CCOc1ccc(NC(=O)COC(=O)C2CC2C)cc1` (stereo unspecified), for which the half-maximal activity concentration (AC50) under setting [1] is 1.64 µM [rising, full curve].

On to `CC(C)[C@H](NC(=O)c1ccccc1Cl)C(=O)OCc1cc(=O)n2cc(Br)ccc2n1`, for which the AC50 under setting [1] is 8.91 µM [rising, partial curve].

Turning to `O=C(NC(=S)Nc1ccc(S(=O)(=O)N2CCCCC2)cc1)c1ccc(Cl)cc1`, the AC50 under setting [1] is 3.26 µM [falling, single point].

In the case of `O=c1[nH]c(SCc2ccccc2Cl)nc2c1cnn2-c1ccccc1`, under setting [1], the AC50 is 29.1 µM [rising, single point].

Turning to `O=C(CSc1n[nH]c(-c2ccncc2)n1)Nc1ccc(Cl)c(Cl)c1`, the AC50 under setting [1] is 35.5 µM [falling, single point].

On to `Cc1ccsc1C(=O)NNC(=O)C1CCCCC1C(=O)O` (stereo unspecified), for which the AC50 under setting [1] was 1.46 µM [falling, partial curve].

`Cc1cc([N+](=O)[O-])nn1CCCC(=O)NCc1ccc(F)cc1`: the AC50 under setting [1] is 20 µM [rising, single point].

Consider `O=c1oc(-c2cccs2)nc2ccc(Cl)cc12`, for which, under setting [1], the AC50 is 2.82 µM [falling, full curve, poor fit].

As to `Cc1ccnc(NC(=O)CCC(=O)c2cccs2)c1`, the AC50 under setting [1] was 25.9 µM [falling, single point].

Take `CC(NC(=O)c1cc(-c2ccc(Br)cc2)on1)c1ccccc1` (stereo unspecified): under setting [1], the AC50 is 35.5 µM [rising, partial curve, poor fit].

As to `COc1ccccc1C(=O)NNC(=O)C(=O)Nc1ccc(C)c(Cl)c1`, under setting [1], the AC50 was 14.1 µM [falling, partial curve].

Consider `CC(=O)c1ccc(NC(=O)c2cnsn2)cc1`, for which the AC50 under setting [1] was 7.94 µM [falling, partial curve].

As for `O=C(COC(=O)CNC(=O)c1cccc(OC(F)F)c1)NCc1ccc2c(c1)OCO2`, under setting [1], the AC50 was 10.3 µM [rising, single point].

As to `C=CCOC(=O)C1=C[C@H](c2coc3ccccc3c2=O)[C@@H](CCCO)[C@H](OCC)O1`, the AC50 under setting [1] is 3.98 µM [rising, partial curve, poor fit].

As for `CCOC(=O)c1c(C)c(C(=O)N2CCN(c3cccc(Cl)c3)CC2)c(C)n1C`, the AC50 under setting [1] is 17.8 µM [falling, single point].

Turning to `Clc1ccc(-c2cn3c(n2)CCC3)cc1`, the AC50 under setting [1] was 3.55 µM [rising, partial curve, poor fit].

`COc1c(N2CCN(C(=S)NCc3ccccc3)C(C)C2)c(F)cc2c(=O)c(C(=O)O)cn(C3CC3)c12` (stereo unspecified): the AC50 under setting [1] was 15.8 µM [rising, single point].

Turning to `CCn1c(SCC(=O)c2ccc(Cl)cc2)nnc1C(C)C`, the half-maximal activity concentration (AC50) under setting [2] was 35.5 µM [falling, partial curve, poor fit].

In the case of `CCOC(=O)c1c(-c2ccc(C)o2)csc1N`, the half-maximal activity concentration (AC50) under setting [1] was 35.5 µM [falling, partial curve, poor fit].

As to `CC(C)c1ccc2c(c1)C1(NN=C(c3ccccc3)S1)C(=O)N2` (stereo unspecified), under setting [1], the half-maximal activity concentration (AC50) is 32.6 µM [falling, single point].

As to `CC1=C(C(=O)NCc2ccccc2)C(c2ccc(C)o2)n2ncnc2N1` (stereo unspecified), the AC50 under setting [1] is 35.5 µM [falling, single point].

On to `COc1ccc(COc2cc(-c3cccc(OC)c3)nc3ccc(NC(=O)c4ccccc4)cc23)cc1`, for which the AC50 under setting [2] was 20.6 µM [falling, single point].

Turning to `CCN=C1S/C(=C\c2ccc(-c3cccc(C(=O)O)c3)o2)C(=O)N1CC`, the AC50 under setting [1] was 10 µM [falling, partial curve].

On to `NC(=O)c1ccc(SCC(=O)NC2CCCCC2)c([N+](=O)[O-])c1`, for which, under setting [1], the AC50 is 31.6 µM [rising, single point].

With `CCc1ccc(-c2nn(Cc3ccccc3)cc2C(=O)NCC2CCCO2)cc1` (stereo unspecified), under setting [1], the half-maximal activity concentration (AC50) was 25.9 µM [rising, single point].

For the molecule `Cc1cc(C)c2nc(NC(=O)C3CCCO3)sc2c1` (stereo unspecified), the AC50 under setting [1] is 6.51 µM [rising, single point].

In the case of `COc1ccc(S(=O)(=O)N2CCOCC2)cc1NC(=O)CSc1ncnc2ccccc12`, under setting [1], the half-maximal activity concentration (AC50) was 5.01 µM [falling, partial curve, poor fit].

With `COc1ccc(C(=O)C2CCCN(Cc3nc4ccccc4nc3C)C2)cc1OC` (stereo unspecified), under setting [1], the AC50 is 0.631 µM [rising, full curve].

As for `CCOc1ccc(Cc2nnc(SCC(=O)c3ccc(OC)cc3)o2)cc1`, the AC50 under setting [1] is 3.55 µM [rising, partial curve, poor fit].

Take `CNC(=O)c1ccsc1NC(=O)c1ccc(Cl)s1`: the AC50 under setting [1] is 8.2 µM [falling, partial curve].

For `O=C(c1c(F)c(F)c(F)c(F)c1F)N1CCN(c2cccc(C(F)(F)F)c2)CC1`, the AC50 under setting [1] was 29.1 µM [rising, single point] and the AC50 under setting [2] was 29.1 µM [falling, single point].

On to `O=c1cc(-c2ccccc2)n(S(=O)(=O)c2ccccc2)o1`, for which the AC50 under setting [1] was 7.31 µM [falling, single point].

Consider `CCN(C(=O)COC(=O)/C=C/c1cnc2ccccc2n1)c1ccccc1`, for which the concentration at half-maximal activity (AC50) under setting [1] was 5.62 µM [falling, single point].

Consider `O=C(Nc1ccc2ccccc2c1)c1ccc(NS(=O)(=O)c2ccc(Br)s2)cc1`, for which the concentration at half-maximal activity (AC50) under setting [1] was 13 µM [falling, partial curve].

For the molecule `CC[C@H](C)Cc1cn([C@@H](CCCN=C(N)N)C(=O)NCCCCCCCCCCC(=O)N2CCNCC2)nn1`, under setting [1], the half-maximal activity concentration (AC50) is 2.31 µM [rising, single point].

With `COc1ccc(NC(=S)NC2CCCCC2)cn1`, the AC50 under setting [1] is 35.5 µM [falling, single point].

On to `Cc1ccccc1OCCC(=O)NNC(=O)COc1cccc(F)c1`, for which, under setting [1], the AC50 was 0.461 µM [rising, full curve, poor fit].

Take `O=C(N1CCC(n2nc(-c3ccccc3)oc2=O)CC1)C1(c2ccccc2)CC1`: the half-maximal activity concentration (AC50) under setting [1] is 22.4 µM [falling, single point].

Take `O=C1c2ccccc2C(=O)N1CCCc1cn(C[C@H]2CC[C@@H]([C@@H]3CC[C@H](Cn4cc(CCCN5C(=O)c6ccccc6C5=O)nn4)O3)O2)nn1`: the AC50 under setting [1] is 1.41 µM [rising, partial curve, poor fit].

Values taken from PubChem BioAssay AID493014 (National Center for Advancing Translational Sciences (NCATS), 2011).
